Earlier results in patent publication US20220265830A1, “LONG-ACTING FORMULATIONS AND VEHICLES” (DURECT CORPORATION, priority 2019, published 2022).
At least one compound was matched to its structure with a doubt left.

Conditions: printed in pKa column; cited from earlier work

## CCCCCCCCCCCCCCCC(=O)N[C@@H](CCC(=O)NCCCC[C@H](NC(=O)[C@H](C)NC(=O)[C@H](C)NC(=O)[C@H](CCC(N)=O)NC(=O)CNC(=O)[C@H](CCC(=O)O)NC(=O)[C@H](CC(C)C)NC(=O)[C@H](Cc1ccc(O)cc1)NC(=O)[C@H](CO)NC(=O)[C@H](CO)NC(=O)[C@@H](NC(=O)[C@H](CC(=O)O)NC(=O)[C@H](CO)NC(=O)[C@@H](NC(=O)[C@H](Cc1ccccc1)NC(=O)[C@@H](NC(=O)CNC(=O)[C@H](CCC(=O)O)NC(=O)[C@H](C)NC(=O)[C@@H](N)Cc1cnc[nH]1)[C@@H](C)O)[C@@H](C)O)C(C)C)C(=O)N[C@@H](CCC(=O)O)C(=O)N[C@@H](Cc1ccccc1)C(=O)N[C@H](C(=O)N[C@@H](C)C(=O)N[C@@H](Cc1c[nH]c2ccccc12)C(=O)N[C@@H](CC(C)C)C(=O)N[C@H](C(=O)N[C@@H](CCCNC(=N)N)C(=O)NCC(=O)N[C@@H](CCCNC(=N)N)C(=O)NCC(=O)O)C(C)C)[C@@H](C)CC)C(=O)O [Liraglutide]
  PI: PI = 4.9
